Reference: paper PMC11791027
Substitutions are numbered along the chain they refer to. Results are given in words; binding and its absence hold for the method and conditions named. In cells and extracts the contact can be indirect. Binding can be weak; no strength is given. Sequences can lack the tags named with a protein.

Columns and labels:
Assay in all cases: co-IP; HEK293T cells cotransfected with Halo-tagged Tulp3 and Myc-tagged hPKD2 (WT, W414G or L517R), cultured 48 h; lysis and washing buffer 20 mM Tris-HCl pH 7.4, 200 mM NaCl, 2.5 mM MgCl2, 0.5% Nonidet P-40; 16 h at 4°C; legends: precipitated with anti-Myc antibody-conjugated beads and blotted with anti-Halo; methods: anti-Halo-tag mAb with protein A/G agarose beads
[1] = target: T1, Myc-tagged hPKD2 L517R mutant (polycystin-2 L517R) (human) (UniProt Q13563)
T1 sequence: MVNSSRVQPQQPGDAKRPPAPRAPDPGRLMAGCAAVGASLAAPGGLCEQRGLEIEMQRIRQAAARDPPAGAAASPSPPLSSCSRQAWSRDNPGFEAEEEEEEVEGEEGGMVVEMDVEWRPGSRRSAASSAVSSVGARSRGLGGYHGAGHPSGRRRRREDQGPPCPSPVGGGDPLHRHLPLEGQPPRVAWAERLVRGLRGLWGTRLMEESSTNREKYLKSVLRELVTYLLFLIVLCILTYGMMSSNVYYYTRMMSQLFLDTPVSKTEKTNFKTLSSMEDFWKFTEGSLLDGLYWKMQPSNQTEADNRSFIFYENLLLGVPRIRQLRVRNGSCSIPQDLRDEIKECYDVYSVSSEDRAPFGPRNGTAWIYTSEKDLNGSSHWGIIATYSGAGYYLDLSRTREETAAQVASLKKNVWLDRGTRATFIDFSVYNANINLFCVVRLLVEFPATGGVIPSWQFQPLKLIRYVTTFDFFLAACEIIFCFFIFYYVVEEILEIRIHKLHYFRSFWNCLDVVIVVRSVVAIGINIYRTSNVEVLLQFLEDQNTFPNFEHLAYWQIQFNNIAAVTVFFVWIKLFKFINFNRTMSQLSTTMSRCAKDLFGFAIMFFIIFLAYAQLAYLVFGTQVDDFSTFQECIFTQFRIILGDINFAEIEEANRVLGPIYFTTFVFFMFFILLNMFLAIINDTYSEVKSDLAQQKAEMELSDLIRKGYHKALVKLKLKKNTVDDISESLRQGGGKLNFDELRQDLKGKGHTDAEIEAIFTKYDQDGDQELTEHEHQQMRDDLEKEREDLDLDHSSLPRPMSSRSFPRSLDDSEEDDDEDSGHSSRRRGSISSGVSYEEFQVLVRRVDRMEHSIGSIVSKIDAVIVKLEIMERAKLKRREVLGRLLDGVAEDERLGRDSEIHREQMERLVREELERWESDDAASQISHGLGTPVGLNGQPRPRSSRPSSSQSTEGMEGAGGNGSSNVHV

[2] = target: T2, Myc-tagged hPKD2 W414G mutant (polycystin-2 W414G) (human) (UniProt Q13563)
T2 sequence: T1 sequence with W414G, R517L

[3] = target: T3, Myc-tagged hPKD2 WT (polycystin-2) (human) (UniProt Q13563)
T3 sequence: T1 sequence with R517L

- binding [1]: binds
- binding [2]: binds
- binding [3]: binds
Substance: Halo-tagged Tulp3
